Test results reported in PMC7432924.

By UniProt entry, the sequences of proteins in these tests, tags left out. Where a name states a change or a piece, a line headed by the entry shows the natural chain unless it says otherwise.
UniProt A0R0A4: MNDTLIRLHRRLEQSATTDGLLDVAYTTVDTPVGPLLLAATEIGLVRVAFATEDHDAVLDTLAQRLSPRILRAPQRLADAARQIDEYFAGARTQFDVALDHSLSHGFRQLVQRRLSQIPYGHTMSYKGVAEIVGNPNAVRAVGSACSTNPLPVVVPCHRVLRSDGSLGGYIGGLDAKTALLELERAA
UniProt A0R1Z2: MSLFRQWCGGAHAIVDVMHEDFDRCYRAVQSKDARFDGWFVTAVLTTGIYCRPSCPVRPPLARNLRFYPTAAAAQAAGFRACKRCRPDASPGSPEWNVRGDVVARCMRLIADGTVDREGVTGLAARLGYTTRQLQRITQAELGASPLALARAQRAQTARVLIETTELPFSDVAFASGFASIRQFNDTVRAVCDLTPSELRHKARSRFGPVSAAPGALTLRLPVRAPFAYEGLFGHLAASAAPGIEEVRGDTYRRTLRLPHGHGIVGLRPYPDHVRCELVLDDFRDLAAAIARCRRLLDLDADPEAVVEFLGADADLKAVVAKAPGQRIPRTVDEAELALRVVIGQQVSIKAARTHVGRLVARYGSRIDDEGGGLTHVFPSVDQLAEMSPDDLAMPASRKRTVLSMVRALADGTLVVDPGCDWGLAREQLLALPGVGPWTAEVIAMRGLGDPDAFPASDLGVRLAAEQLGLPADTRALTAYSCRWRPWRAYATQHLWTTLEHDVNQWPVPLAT

Target: GST-Ogt fused protein (M. smegmatis Ogt) (M. smegmatis) (UniProt A0R0A4)
Assay: SEC; the two purified proteins incubated in 1:1 ratio in 50 mM Tris-HCl pH 8.0, 20 mM NaCl for 2 h at 25 °C, then Superdex 200 10/300 GL; peak analysed by SDS-PAGE and LC-MS/MS; both purified

**Q.** With “GST-Ada-AlkA (recombinant M. smegmatis Ada-AlkA) (from UniProt A0R1Z2)” as the substance, how does the binding read?
**A.** binds

Results are given in words; binding and its absence hold for the method and conditions named. A result given as binding can be weak or reduced; the word gives no strength.
